Reference: the supplement of paper PMC3334620
The full ranking holds about 33,000 sequences; the median of “E-score (-0.5 to 0.5)” is about -0.016, and the highest 2% start at about 0.3. The list shows a part of the results.

biological target: T1, Yer184c (UniProt P39961); assay: PBM E-score (8-mer binding enrichment) (E-score (-0.5 to 0.5)); higher = stronger / more preferred TF binding; settings: protein concentration: 100 nM; construct: GST-full length
T1 sequence: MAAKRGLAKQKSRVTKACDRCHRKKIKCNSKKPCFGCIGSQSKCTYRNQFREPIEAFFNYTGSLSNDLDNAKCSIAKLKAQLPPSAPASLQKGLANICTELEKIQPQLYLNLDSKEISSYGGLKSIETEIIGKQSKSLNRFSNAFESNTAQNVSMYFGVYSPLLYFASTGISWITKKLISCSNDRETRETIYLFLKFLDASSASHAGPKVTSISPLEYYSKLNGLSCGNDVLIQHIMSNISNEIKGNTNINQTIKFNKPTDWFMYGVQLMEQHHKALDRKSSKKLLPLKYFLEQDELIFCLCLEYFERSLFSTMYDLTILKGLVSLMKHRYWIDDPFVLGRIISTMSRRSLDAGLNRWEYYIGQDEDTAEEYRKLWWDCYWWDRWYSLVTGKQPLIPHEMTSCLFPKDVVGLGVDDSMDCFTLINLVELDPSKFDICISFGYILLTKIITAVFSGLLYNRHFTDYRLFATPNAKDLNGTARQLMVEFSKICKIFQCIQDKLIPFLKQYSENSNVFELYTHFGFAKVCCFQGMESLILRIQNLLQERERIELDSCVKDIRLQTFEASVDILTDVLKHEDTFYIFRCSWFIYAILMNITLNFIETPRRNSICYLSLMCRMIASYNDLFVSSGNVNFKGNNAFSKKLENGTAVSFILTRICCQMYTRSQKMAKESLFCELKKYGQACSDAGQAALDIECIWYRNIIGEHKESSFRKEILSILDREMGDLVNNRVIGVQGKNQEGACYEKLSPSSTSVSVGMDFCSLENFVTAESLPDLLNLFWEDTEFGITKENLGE
In short: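 Yeast transcription factors carrying a GST tag, as full-length proteins or DNA-binding domains, were produced by PURExpress in vitro transcription/translation. About 100-200 nM protein was applied to universal all-10-mer Agilent arrays, double-stranded by primer extension on fresh or once-stripped slides. Bound protein was detected with fluorescent anti-GST, and scans were normalised with masliner. The Universal PBM Analysis Suite gave each ungapped eight-base word, pooled with its reverse complement, an E-score, a modified Wilcoxon-Mann-Whitney statistic.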

Sequence	PBM E-score
AAGTGGGC	0.0443
AAAAGTTT	0.0149
CGACCTCA	-0.0717
CCCTACGA	-0.206
TGCGAGAA	-0.117
CCTACTAA	-0.0122
ACTTATCG	0.00695
CCGGTTCC	0.256
CGAGCCCG	0.112
CCGTGGAA	0.17
CCTGGCAG	-0.144
CCCTAACC	-0.239
ACTGCAAA	0.0905
TATGCTGA	0.0602
ACTCCTAC	-0.0541
AGACTCGG	-0.0794
CTGCCCAC	-0.3
GCATAAGC	-0.0645
CAACATTA	0.0137
ATACCAAG	0.105
ACCACTCT	-0.199
ACGTCGAC	0.024

Sequence	PBM E-score
AGTCGGTC	-0.0845
AATGTTAC	0.0997
CGGTCTTA	0.112
AGCTTCTC	-0.158
GGTGGCGA	-0.284
CACATACC	-0.0268
GAACTTAC	0.0957
GTCACGAA	0.0687
CGGACAAA	0.353
AGCAAAAT	0.215
CGTGGGCC	-0.00122
CTGGACGA	-0.33
AAAACGGC	0.213
CGGAACAA	0.39
CTCTGGCA	-0.235
CTTTTACC	0.163
AATCAGCC	-0.117
TTCTTCAA	0.0435
TAAGATAA	-0.00611
CTGTTGTC	0.0854
ATCTTGAA	0.13
AGGGTACA	-0.178

Sequence	PBM E-score
ACAGGGTC	-0.22
CGTCTTAA	0.111
GTTTATGA	0.147
CGATGTGA	-0.0857
ATACCTGG	-0.365
CAGTGAGA	-0.0108
TCCAAACA	0.0813
CGCTTTTC	-0.0353
GACAAGAC	0.0209
AACGTTGT	0.046
CGAAGACG	-0.0963
CATACTTC	-0.0518
CTTCCTTC	-0.124
AGAAAGAT	-0.0369
TGCGGCAA	0.0333
GTAACCAC	-0.321
AAGGTGTC	-0.0419
ACGGTAGT	0.0307
AATAGGGG	-0.158
CGCAGGAG	-0.149
GCCCACAC	-0.0207
CTATGCTC	-0.278

A few values from the list.
For PBM E-score, CGTCTTAA has the entry 0.111
For PBM E-score, CGCAGGAG has the entry -0.149
For PBM E-score, CTATGCTC has the entry -0.278

More entries

Sequence	PBM E-score
AAACGCTG	-0.124
ATTAGGGA	-0.135
ATATCATG	-0.099
CCTTCTAA	-0.136
CGAATACA	0.00165
CCTAGGGC	-0.155
ATGTGCAG	-0.109
ATTATTAC	0.0952
CATGAATG	-0.0649
GCTGGCTA	-0.26
CCAGCGGG	0.134
ATATGTAG	-0.0556
AAAACACG	0.141
ATGCAGAA	0.0488
GCAGTAAA	0.0245
AGCTTAAC	0.0281
AGTTTTCC	0.254
CACATGCC	0.00938
ACTCGCAT	-0.0528
CTTGGGGA	-0.0684
CCGTAAGG	-0.115
GTTAGATA	0.0944

Sequence	PBM E-score
TGACAACA	0.097
ACTAGGCC	-0.235
AGTAAAGG	-0.0145
AGAGGTGG	-0.147
CACGCGAG	0.103
GAGCAGAC	-0.176
GGTGACGA	-0.0706
CAGCTCCC	-0.248
GAACCTCC	-0.0558
ATTAAACA	0.15
AATATCTA	0.0259
GGAACCTA	-0.0284
ACTGAATG	0.0297
CGCCTACG	-0.178
TGACCAAA	0.0847
AATAATCT	0.111
ATTAGGCG	0.0255
ATGAACGA	-0.0158
CACCTCAA	0.00761
ATGACATC	0.06
CCCTAGGG	-0.235
